Source: PMC11087964

Target: Mst4 overexpressed from adenovirus (AdMST4) in neonatal rat ventricular cardiomyocytes (rat)
Experiment: affinity purification with mass spectrometry; Co-IP of Mst4 from NRVCM after adenoviral LacZ or Mst4 overexpression, in absence or presence of the kinase inhibitor hesperadin; eluates (n = 2) analysed by LC-MS/MS; ratios of MST4 to LacZ samples

binding | Binder
binds | striatin3 (protein, UniProt P58405 1-794) MDELAGGGGGQGMAVPPRPQQGPGGNLSLPPGANGAPGGGGPPAAETAGPPAGPELSRPQQYTIPGILHYIQHEWARFEMERAHWEVERAELQARIAFLQGERKGQENLKKDLVRRIKMLEYALKQERAKYHKLKYGTELNQGDLKMPTFESEETKDAEAPPAQNSQLTWKQGRQLLRQYLQEVGYTDTILDVRSQRVRSLLGLSNSEPNGSIEAKNLEQILNGGESPKQKGQEIKRPSGDVLETFNFLENADDSDEEENDMIEGIPEGKDKLRIHKHKIGNEGLAADLTDDPDTEEALKEFDFLVTAEDGEGAGEARSSGDGTEWDKDDLSPTAEVWDVDQGLMSKLKEQYKKERKGKRGAKRVNRTNLCDMITDLGDDELPHIPSGIINQSRSASTRMTDHEGSRAEEAEPITFPSGGGKSFIMGSDDVLLSVLGLGDLADLTVTNDADYSYDLPANKDALRKTWNPKYTLRSHFDGVRALAFHPVEPVLVTASEDHTLKLWNLQKTVPAKKSASLDVEPIYTFRAHIGPVLSLAISSNGEQCFSGGIDATIQWWNMPSPNVDPYDTYESHVLAGTLVAHTDAVWGLAYSGIKNQLLSCSADGTIRLWNPQEKLPCICTYNGDKEHGIPTSVDFIGCDPAHMVTSFNTGSAIIYDLETSQSLVMLSSQVDSGLQSSNHINRVVSHPTLPVTITAHEDRHIKFFDNKTGKMIHSMVAHLDAVTSLAVDPNGIYLMSGSHDCSIRLWNLDSKTCVQEITAHRKKLDESIYDVAFHPSKAYIASAGADALAKVFV
binds | sarcolemma-associated protein (Slmap) (protein, UniProt P0C219 1-858) MPSALAIFTCRPNSHPFQERHVYLDEPIKIGRSVARCRPAQNNATFDCKVLSRNHALVWFDHKTSKFYLQDTKSSNGTFINSQRLSRGSEESPPCEILSGDIIQFGVDVTENTRKVVTHGCIVSTIKLFLPDGMEARLRSDDVIHAPLPSPVDKVAANTPSMYSQELFQLSQYLQEALHREQMLEQKLATLQRLLAITQEASDTSWQALIDEDRLLSRLEVMGNQLQACSKNQTEDSLRKELVALQEDKHSYETTAKESLRRVLQEKIEVVRKLSEVERSLSNTEDECTHLREMNERTQEELRELANKYNGAVNEIKDLSDKLKAAEGKQEEIQQKGQAEKKELQAKIDDMEEKEQELQAKIEALQADNDFTNERLTALQVVRLEPLQEKTLKECSSLGGIQVDDFLPKINGSTEKEERLLSKSGGDCTFIHQFIECQKKKLMVQGHLTKVVEESKLSKEENQAKAKESDLSDTLSPSKEKSSDDTTDDAQMDEQDLNEPLAKVSLLKDDDLQGTQAETEAKQDTQHLRKELVEAQELARASKQKCFDLQAALLEEERKAYRNQVEESAKQIQVLQVVQLQRLHMDMENLQEEKDTEISSTRDKLLSAQDEILLLHQAAAKAVSERDTDFMSLQEELKKVRAELEGWRKAASEYEEEIRSLQSTFQLRCQQCEVQQREEATRLQGGELEKLKKEWDVLENECRSLKKENVLLSSELQRQEKELHNNSQKQSLELTSDLSILQMTRKELENQMGSLKEQHLRDEADLKTLLSKAENQAKDVQKEYEKTQTVLSELKLKFEMTEQEKQSITDELKQCKDNLKLLREKGNNKPWPWMPMVAALVAVTAMVLYVPGLARASP
binds | Mps one binder kinase activator-like 4 (protein, UniProt Q9QYW3 1-225) MVMAEGTAVLRRNRPGTKAQDFYNWPDESFDEMDSTLAVQQYIQQNIRADCSNIDKILEPPEGQDEGVWKYEHLRQFCLELNGLAVKLQSECHPDTCTQMTATEQWIFLCAAHKTPKECPAIDYTRHTLDGAACLLNSNKYFPSRVSIKESSVAKLGSVCRRIYRIFSHAYFHHRQIFDEYENETFLCHRFTKFVMKYNLMSKDNLIVPILEEEVQNSVSGESEA
binds | striatin (protein, UniProt P70483 1-780) MDEQAGPGVFFSNNHPGAGGAKGLGPLAEAAAAGDGAAAAGAARAQYSLPGILHFLQHEWARFEVERAQWEVERAELQAQIAFLQGERKGQENLKKDLVRRIKMLEYALKQERAKYHKLKYGTELNQGDMKPPSYDSDEGNETEVQPQQNSQFMWKQGRQLLRQYLQEVGYTDTILDVKSKRVRALLGFSSDVTDREDDKNQDSVINGTEAEVKETAMIGKSELTDSASVLDNFKFLENAAADFSDEDEDEDIDGREKSVIDTSTIVRKKPLPDTSEDRDTKEALKEFDFLVASEEGDNESRSAGDGTDWEKEDQCLTPERWNVDQGVITRLKEQYKKERKGKKGVKRPNRSKLQDMLANLRDVDELPSLQPSVGSPSRPSSSRLPEQDISRADEVEALTFPPSSGKSFIMGADEALESELGLGELAGLTVANEADSLAYDIANNKDALRKTWNPKFTLRSHFDGIRALAFHPIEPVLITASEDHTLKMWNLQKTAPAKKSTSLDVEPIYTFRAHKGPVLCVVMSSNGEQCYSGGTDGLIQSWSTTNPNVDPYDSYDPSVLRGPLLGHTDAVWGLAYSAAHQRLLSCSADGTLRLWTTTEVAPALTVFNDNQELGIPASVDLVSSDPSHMVASFSKGYTSIFNMETQQRILTLESNVDSTASSSCQINRVISHPTLPISITAHEDRHIKFYDNNTGKLIHSMVAHLEAVTSLAVDPNGLYLMSGSHDCSIRLWNLESKTCIQEFTAHRKKFEESIHDVAFHPSKCYIASAGADALAKVFV
binds | junction plakoglobin (protein, UniProt Q6P0K8 1-745) MEVMNLIEQPIKVTEWQQTYTYDSGIHSGVNTCVPSVSSKGLLDEDDTCGRQYTLKKTTTYTQGVPQSQGDLEYQMSTTARAKRVREAMCPGVSGEDSSLLLATQVEGQTTNLQRLAEPSQLLKSAIVHLINYQDDAELATRALPELTKLLNDEDPVVVTKAAMIVNQLSKKEASRRALMGSPQLVAAVVRTMQNTSDLDTARCTTSILHNLSHHREGLLAIFKSGGIPALVRMLSSPVESVLFYAITTLHNLLLYQEGAKMAVRLADGLQKMVPLLNKNNPKFLAITTDCLQLLAYGNQESKLIILANGGPQGLVQIMRNYSYEKLLWTTSRVLKVLSVCPSNKPAIVEAGGMQALGKHLTSNSPRLVQNCLWTLRNLSDVATKQEGLENVLKILVNQLSVDDVNVLTCATGTLSNLTCNNSKNKTLVTQNSGVEALIHAILRAGDKDDITEPAVCALRHLTSRHPEAEMAQNSVRLNYGIPAIVKLLNQPNQWPLVKATIGLIRNLALCPANHAPLQEAAVIPRLVQLLVKAHQDAQRHVAAGTQQPYTDGVRMEEIVEGCTGALHILARDPMNRMEIFRLNTIPLFVQLLYSSVENIQRVAAGVLCELAQDKEAADAIDAEGASAPLMELLHSRNEGTATYAAAVLFRISEDKNPDYRKRVSVELTNSLFKHDPAAWEAAQSMIPINEPYADDMDATYRPMYSSDVPLDPLDMHMDMDGDYPMDTYSDGLRPPYPAADHMLA

Results are given in words; binding and its absence hold for the method and conditions named. In cells and extracts the contact can be indirect. A yes stands for co-enrichment or nearness to the bait. Other partners may have been found.
